Measurements taken from patent publication US20250271426A1, “REDUCTION OF BITTER TASTE OF ACTIVE PHARMACEUTICAL INGREDIENTS AND RELATED ASSAYS AND SCREENING METHODS” (Firmenich Incorporated, priority 2022, published 2025).

Target: T1, T2R receptor SEQ ID NO: 6 (S6) (Homo sapiens, UniProt P59540)
T1 construct: expressed in transfected cells; host or cells: cells expressing a promiscuous G protein (e.g., G16g44)
T1 sequence (P59540 1-309): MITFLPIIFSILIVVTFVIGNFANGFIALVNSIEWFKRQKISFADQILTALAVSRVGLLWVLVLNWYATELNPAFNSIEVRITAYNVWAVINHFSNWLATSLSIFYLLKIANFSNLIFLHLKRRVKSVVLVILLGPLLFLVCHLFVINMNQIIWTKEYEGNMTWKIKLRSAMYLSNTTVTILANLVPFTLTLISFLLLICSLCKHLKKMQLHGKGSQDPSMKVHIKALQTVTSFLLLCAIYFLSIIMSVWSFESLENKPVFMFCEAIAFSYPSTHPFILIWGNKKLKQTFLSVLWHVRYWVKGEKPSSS
Test: FLIPR calcium assay, cells with promiscuous G protein transfected with bitter receptor cDNA
Assay type: cell-based
Conditions: responsive if cellular response of >10% over baseline, Fluo4-AM
Experimental: Cells expressing a promiscuous G protein (e.g., G16g44) were transfected with vectors encoding 22 functional bitter receptor cDNAs, with one receptor per transfection. The cells were transfected directly in 384-well format high-density plates and incubated for 28 hours. Later, cells were loaded with the Ca-specific dye Fluo4-AM. After an incubation of 60 minutes, excess dye is washed off, and cells are stimulated with respective bitter agonists while simultaneously recording changes in intracellular fluorescence using a FLIPR instrument.
The above protocol was carried out using 94 different active pharmaceutical ingredients (APIs) that span a wide range of different APIs having a diversity of chemical structures. A particular T2R receptor was identified as being responsive to a particular API if it triggered a cellular response of >10% over baseline.

SMILES: Cc1ccccc1C(OCCN(C)C)c1ccccc1 (stereo not shown) [Orphenadrine]
- S6 positive response of T2R receptor to API: + (a “+” to indicate whether a particular T2R receptor showed a positive response to a particular API)
